Results deposited as PubChem BioAssay AID652272 (Drosophila RNAi Screening Center, 2013)
The deposit covers about 21,000 reagents; below is a random part of those that have a named target and a result. Over the whole deposit, 503 (2.4%) are marked active. 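Raw plate light values, not normalised; calls rest on replicate z-scores that were not deposited; hits include reporter decreases as well as increases.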 A number with no mark means an inactive call. The numbers tell different reagents against one gene apart. A plus sign joins genes that one reagent is predicted to hit. Not given: the amount of reagent, the time to read-out.

Purpose: 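Finding fly genes that regulate Hedgehog signal transduction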 (primary screen)
Cells: Drosophila clone 8 (Cl8) cells
Reagents: long dsRNA against Drosophila genes
Read-out: 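Firefly light from a Hedgehog-responsive ptc promoter reporter and Renilla reference light, both read on a plate reader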
Scale: firefly Hh reporter signal: higher = more ptc reporter light; Renilla reference signal: higher = more Renilla control light
Active means: 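Hit when the z-score averaged over two replicates is under -2 or over +3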
Meaning of the calls: active = hit: reporter lowered or raised; inactive = not a hit

gene | dsRNA no. | firefly Hh reporter signal, replicate 1 | firefly Hh reporter signal, replicate 2 | firefly Hh reporter signal, replicate 3 | Renilla reference signal, replicate 1 | Renilla reference signal, replicate 2
E(spl)m3-HLH | 1 | 2.49e5 | 37955 | – | 15977 | 1434
Reepl1 | 1 | 1.20e5 | 2.17e5 | – | 4649 | 9188
CG12081 | 1 | 84653 | 76021 | – | 1997 | 1968
CG3527 | 1 | 73602 | 1.19e5 | – | 2708 | 5433
pyx | 1 | 96443 | 53072 | – | 2668 | 3657
pyx | 2 | 58800 | 29603 | – | 2187 | 2870
boil | 1 | 69943 | 1.90e5 | – | 1350 | 6765
CG8736 | 1 | 1.47e5 | 65965 | – | 3624 | 6400
dmpd | 1 | 64208 | 48522 | – | 3099 | 2017
CG7377 | 1 | 82722 | 41456 | 31009 | 5528 | 2629
TM9SF3 | 1 | 32536 | 44968 | – | 3824 | 3418
CG42662 + CG30080 | 1 | 1.73e5 | 3.74e5 | – | 4435 | 15728
Tmlh | 1 | 5.93e5 | 69346 | – | 29638 | 1965
Nep1 | 1 | 84235 | 71381 | – | 1856 | 1873
Nep1 | 2 | 32236 | 42218 | – | 1383 | 2258
Mcm6 | 1 | 67797 | 47685 | – | 1765 | 1002
Asap | 1 | 1.38e5 | 62325 | – | 3348 | 5421
Asap | 2 | 84925 | 54269 | – | 3557 | 1851
CG32719 | 1 | 6.00e5 | 2.11e5 | – | 28320 | 5223
Vps20 | 1 | 70247 | 40458 | – | 1603 | 4252
RpS29 + snoRNA:Psi18S-1275 | 1 | 29760 | 45837 | – | 1328 | 2091
CG13390 | 1 | 1.08e5 | 58812 | – | 2960 | 4888
S-Lap5 | 1 | 76924 | 69937 | – | 1901 | 5291
Ntf-2 | 1 | 1.19e5 | 1.16e5 | – | 3056 | 2629
CG7518 | 1 | 93381 | 93722 | – | 4240 | 4173
Or56a | 1 | 99672 | 63252 | – | 2967 | 4580
betaTub56D | 1 | 58656 | 43660 | – | 1626 | 3147
sel | 1 | 84169 | 4.73e5 | 94819 | 3442 | 26902
CG14072 | 1 | 95925 | 89814 | – | 2808 | 6541
CG10366 | 1 | 1.10e5 | 83724 | – | 4427 | 3584
CG8089 | 1 | 99496 | 45380 | – | 2529 | 3879
CG17717 | 1 | 70304 | 1.89e5 | – | 2567 | 7042

10 successive records from above, for reference:
gene | dsRNA no. | firefly Hh reporter signal, replicate 1 | firefly Hh reporter signal, replicate 2 | firefly Hh reporter signal, replicate 3 | Renilla reference signal, replicate 1 | Renilla reference signal, replicate 2
CG3527 | 1 | 73602 | 1.19e5 | – | 2708 | 5433
pyx | 1 | 96443 | 53072 | – | 2668 | 3657
pyx | 2 | 58800 | 29603 | – | 2187 | 2870
boil | 1 | 69943 | 1.90e5 | – | 1350 | 6765
CG8736 | 1 | 1.47e5 | 65965 | – | 3624 | 6400
dmpd | 1 | 64208 | 48522 | – | 3099 | 2017
CG7377 | 1 | 82722 | 41456 | 31009 | 5528 | 2629
TM9SF3 | 1 | 32536 | 44968 | – | 3824 | 3418
CG42662 + CG30080 | 1 | 1.73e5 | 3.74e5 | – | 4435 | 15728
Tmlh | 1 | 5.93e5 | 69346 | – | 29638 | 1965

Further records:
gene | dsRNA no. | firefly Hh reporter signal, replicate 1 | firefly Hh reporter signal, replicate 2 | firefly Hh reporter signal, replicate 3 | Renilla reference signal, replicate 1 | Renilla reference signal, replicate 2
beat-Va | 1 | 1.18e5 | 1.16e5 | – | 4365 | 2520
CG9541 | 1 | 1.08e5 | 47175 | – | 2728 | 4773
Prosalpha6 | 1 | 41707 (active) | 27911 | – | 1767 | 3718
CG31076 | 1 | 88312 | 1.04e5 | – | 3307 | 3328
CG30485 | 1 | 76459 | 74524 | – | 1874 | 5469
FucTC | 1 | 6.39e5 | 2.37e5 | – | 35728 | 5673
Desat1 | 1 | 47744 | 79655 | – | 2172 | 4947
CG13040 | 1 | 1.42e5 | – | – | 7475 | 4277
Smg5 | 1 | 1.26e5 (active) | 71416 | – | 3120 | 1636
car | 1 | 1.65e5 | 1.43e5 | – | 3562 | 3640
Zyx | 1 | 4.73e5 | 1.83e5 | – | 23755 | 4632
Art3 | 1 | 1.42e5 | 91532 | – | 5440 | 3568
frtz | 1 | 1.11e5 | 74681 | – | 3024 | 1882
CG5282 | 1 | 80267 | 50962 | – | 3314 | 2304
EDTP | 1 | 72233 | 40487 | – | 1973 | 2925
CG30196 | 1 | 1.12e5 | 64867 | – | 2874 | 6108
hob | 1 | 80416 | 46097 | – | 3053 | 1894
Ssb-c31a | 1 | 1.73e5 | 71229 | – | 4640 | 7057
Tnks | 1 | 4.82e5 | 1.12e5 | – | 23084 | 2944
ovo | 1 | 85396 | 1.06e5 | – | 1899 | 2733
ovo | 2 | 1.17e5 | 3.25e5 | – | 4171 | 11633
CG10301 | 1 | 4.72e5 | 88452 | – | 24560 | 2853
LysD + LysB + LysC (retired record) | 1 | 77228 | 2.37e5 | – | 2805 | 9011
CG5681 | 1 | 1.44e5 | 68020 | – | 3286 | 7690
pros | 1 | 46074 | 1.98e5 | – | 8592 | 3772
pros | 2 | 2.26e5 | 1.42e5 | – | 7600 | 5353
